Reference: PMC4476799, “Englerin A Agonizes the TRPC4/C5 Cation Channels to Inhibit Tumor Cell Line Proliferation” (PLoS ONE, 2015)
This continues a long series; more values of the same kind are listed elsewhere.

System: cancer cell lines from the cancer cell line encyclopedia (CCLE)
Assay: Cell line profiling (CLiP) proliferation experiment
Type: cell-based
Set-up: ACTIVITY_AREA: scale not given here; AMAX: unit not given here
Method: Compound profiling experiment and data analysis was performed as previously described. Data was imported and plotted using the Tibco Spotfire DXP application. Lines were categorized as sensitive, intermediate and refractory as follows: Amax<-40 & Inflection Point <2 ~ Sensitive, Amax>-20 & Inflection Point >10 ~ Refractory, all else were called Intermediate. Cancer Cell line HG-U133 Plus 2 data was processed and normalized as described. […] Five sets of refractory cell lines were generated from the pool of refractory cell lines trying to match the lineage composition of the set of sensitive cell lines. The limma package was used as previously described to perform the statistical comparison.

[1] = TOV-21G (ovary, clear_cell_carcinoma)
[2] = TOV-112D (ovary, endometrioid_carcinoma)
[3] = TT2609-C02 (thyroid, follicular_carcinoma)
[4] = U266B1 (haematopoietic_and_lymphoid_tissue)
[5] = U266B1 (haematopoietic_and_lymphoid_tissue, plasma_cell_myeloma)
[6] = U-118 MG (central_nervous_system, astrocytoma)
[7] = U-251 MG (central_nervous_system)
[8] = U-251 MG (central_nervous_system, astrocytoma)
[9] = U-937 (haematopoietic_and_lymphoid_tissue)
[10] = U-937 (haematopoietic_and_lymphoid_tissue, malignant_histiocytosis)
[11] = WSU-DLCL2 (haematopoietic_and_lymphoid_tissue)
[12] = Z-138 (haematopoietic_and_lymphoid_tissue)
[13] = cell line 697, haematopoietic_and_lymphoid_tissue, acute_lymphoblastic_leukaemia
[14] = cell line 1321N1 (central_nervous_system, astrocytoma)
[15] = cell line 1321N1, central_nervous_system, astrocytoma
[16] = cell line A4/Fuk, haematopoietic_and_lymphoid_tissue, diffuse_large_B_cell_lymphoma
[17] = cell line A172, central_nervous_system, astrocytoma_Grade_IV
[18] = cell line A549, lung, adenocarcinoma
[19] = cell line A2780, ovary, adenocarcinoma
[20] = cell line A-253, salivary_gland, mucoepidermoid_carcinoma
[21] = cell line A-498, kidney, renal_cell_carcinoma
[22] = cell line ABC-1, lung, non_small_cell_carcinoma
[23] = cell line ACC-MESO-1, pleura, NS
[24] = cell line ACHN, kidney, renal_cell_carcinoma

**Q.** Which results are given for CC(C)[C@@]12C[C@@H](O)[C@@](C)(O1)[C@@H]1CC[C@@H](C)[C@H]1[C@@H]2OC(=O)/C=C/c1ccccc1 [Englerin B]?
**A.** ACTIVITY_AREA [1]: 52.76; AMAX [1]: -60.59; RESPONSE [1]: INTERMEDIATE; ACTIVITY_AREA (TOV-112D (ovary)): 27.12; AMAX (TOV-112D (ovary)): -74.35; RESPONSE (TOV-112D (ovary)): INTERMEDIATE; ACTIVITY_AREA [2]: 27.12; AMAX [2]: -74.35; RESPONSE [2]: INTERMEDIATE; ACTIVITY_AREA [3]: 22.23; AMAX [3]: -58.54; RESPONSE [3]: INTERMEDIATE; ACTIVITY_AREA (TT2609-C02 cells): 22.23; AMAX (TT2609-C02 cells): -58.54; RESPONSE (TT2609-C02 cells): INTERMEDIATE; ACTIVITY_AREA [4]: 13.19; AMAX [4]: -42.3; RESPONSE [4]: INTERMEDIATE; ACTIVITY_AREA [5]: 13.19; AMAX [5]: -42.3; RESPONSE [5]: INTERMEDIATE; ACTIVITY_AREA [6]: 17.9; AMAX [6]: -38.77; RESPONSE [6]: INTERMEDIATE; ACTIVITY_AREA [7]: 34.78; AMAX [7]: -31.64; RESPONSE [7]: INTERMEDIATE; ACTIVITY_AREA [8]: 34.78; AMAX [8]: -31.64; RESPONSE [8]: INTERMEDIATE; ACTIVITY_AREA [9]: 49.13; AMAX [9]: -82.46; RESPONSE [9]: INTERMEDIATE; ACTIVITY_AREA [10]: 49.13; AMAX [10]: -82.46; RESPONSE [10]: INTERMEDIATE; ACTIVITY_AREA (UACC-62 (skin)): 41.15; AMAX (UACC-62 (skin)): -44.29; RESPONSE (UACC-62 (skin)): INTERMEDIATE; ACTIVITY_AREA (UACC-257 (skin)): 31.33; AMAX (UACC-257 (skin)): -80.26; RESPONSE (UACC-257 (skin)): INTERMEDIATE; ACTIVITY_AREA (UM-UC-3 (urinary_tract)): 37.41; AMAX (UM-UC-3 (urinary_tract)): -54.71; RESPONSE (UM-UC-3 (urinary_tract)): INTERMEDIATE; ACTIVITY_AREA (VM-CUB1 (urinary_tract)): 96.55; AMAX (VM-CUB1 (urinary_tract)): -58.31; RESPONSE (VM-CUB1 (urinary_tract)): INTERMEDIATE; ACTIVITY_AREA (VMRC-RCW (kidney)): 10.22; AMAX (VMRC-RCW (kidney)): -25.65; RESPONSE (VMRC-RCW (kidney)): INTERMEDIATE; ACTIVITY_AREA (VMRC-RCZ (kidney)): 26.25; AMAX (VMRC-RCZ (kidney)): -46.92; RESPONSE (VMRC-RCZ (kidney)): INTERMEDIATE; ACTIVITY_AREA (WM1799 (skin)): 44.8; AMAX (WM1799 (skin)): -38.05; RESPONSE (WM1799 (skin)): INTERMEDIATE; ACTIVITY_AREA (WM-88 (skin)): 55.16; AMAX (WM-88 (skin)): -34.98; RESPONSE (WM-88 (skin)): INTERMEDIATE; ACTIVITY_AREA (WM-115 (skin)): 73.29; AMAX (WM-115 (skin)): -15.29; RESPONSE (WM-115 (skin)): REFRACTORY; ACTIVITY_AREA (WM-266-4 (skin)): 31.57; AMAX (WM-266-4 (skin)): -38.36; RESPONSE (WM-266-4 (skin)): INTERMEDIATE; ACTIVITY_AREA (WM-793 (skin)): 26.94; AMAX (WM-793 (skin)): -46.79; RESPONSE (WM-793 (skin)): INTERMEDIATE; ACTIVITY_AREA (WM-983B (skin)): 63.66; AMAX (WM-983B (skin)): -43.12; RESPONSE (WM-983B (skin)): INTERMEDIATE; ACTIVITY_AREA (WS1 (skin)): 21.77; AMAX (WS1 (skin)): -26.6; RESPONSE (WS1 (skin)): INTERMEDIATE; ACTIVITY_AREA [11]: 47.3; AMAX [11]: -92.11; RESPONSE [11]: INTERMEDIATE; ACTIVITY_AREA (YAPC (pancreas)): 25.5; AMAX (YAPC (pancreas)): -44.67; RESPONSE (YAPC (pancreas)): INTERMEDIATE; ACTIVITY_AREA (YKG1 (central_nervous_system)): 26.45; AMAX (YKG1 (central_nervous_system)): -20.02; RESPONSE (YKG1 (central_nervous_system)): INTERMEDIATE; ACTIVITY_AREA (YMB-1 (breast)): 29.44; AMAX (YMB-1 (breast)): -63.02; RESPONSE (YMB-1 (breast)): INTERMEDIATE; ACTIVITY_AREA [12]: 90.79; AMAX [12]: -65.74; RESPONSE [12]: INTERMEDIATE; ACTIVITY_AREA (ZR-75-1 (breast)): 42.06; AMAX (ZR-75-1 (breast)): -53.16; RESPONSE (ZR-75-1 (breast)): INTERMEDIATE; ACTIVITY_AREA (ZR-75-30 (breast)): 30.23; AMAX (ZR-75-30 (breast)): -46.93; RESPONSE (ZR-75-30 (breast)): INTERMEDIATE; ACTIVITY_AREA (cell line 8-MG-BA): 36.6; AMAX (cell line 8-MG-BA): -52.73; RESPONSE (cell line 8-MG-BA): INTERMEDIATE; ACTIVITY_AREA (cell line 22Rv1, prostate, NS): 30.61; AMAX (cell line 22Rv1, prostate, NS): -53.2; RESPONSE (cell line 22Rv1, prostate, NS): INTERMEDIATE; ACTIVITY_AREA (cell line 59M): 26.55; AMAX (cell line 59M): -38.54; RESPONSE (cell line 59M): INTERMEDIATE; ACTIVITY_AREA [13]: 47.18; AMAX [13]: -80.98; RESPONSE [13]: INTERMEDIATE; ACTIVITY_AREA (cell line 786-O): 46.1; AMAX (cell line 786-O): -38.05; RESPONSE (cell line 786-O): INTERMEDIATE; ACTIVITY_AREA [14]: 44.21; AMAX [14]: -46.66; RESPONSE [14]: INTERMEDIATE; ACTIVITY_AREA [15]: 44.21; AMAX [15]: -46.66; RESPONSE [15]: INTERMEDIATE; ACTIVITY_AREA (cell line 23132/87): 152.84; AMAX (cell line 23132/87): -72.44; RESPONSE (cell line 23132/87): INTERMEDIATE; ACTIVITY_AREA [16]: 67.88; AMAX [16]: -69.84; RESPONSE [16]: INTERMEDIATE; ACTIVITY_AREA (cell line A101D, skin, NS): 15.59; AMAX (cell line A101D, skin, NS): -37.08; RESPONSE (cell line A101D, skin, NS): INTERMEDIATE; ACTIVITY_AREA (cell line A172): 7.84; AMAX (cell line A172): 1.3; RESPONSE (cell line A172): REFRACTORY; ACTIVITY_AREA [17]: 7.84; AMAX [17]: 1.3; RESPONSE [17]: REFRACTORY; ACTIVITY_AREA [18]: 37.23; AMAX [18]: -58.53; RESPONSE [18]: INTERMEDIATE; ACTIVITY_AREA (cell line A2058, skin, NS): 56.89; AMAX (cell line A2058, skin, NS): -70.85; RESPONSE (cell line A2058, skin, NS): INTERMEDIATE; ACTIVITY_AREA [19]: 23.16; AMAX [19]: -68.66; RESPONSE [19]: INTERMEDIATE; ACTIVITY_AREA (cell line A-204): 22.22; AMAX (cell line A-204): -45.81; RESPONSE (cell line A-204): INTERMEDIATE; ACTIVITY_AREA [20]: 47.22; AMAX [20]: -88.59; RESPONSE [20]: INTERMEDIATE; ACTIVITY_AREA (cell line A-375, skin, NS): 20.24; AMAX (cell line A-375, skin, NS): -2.69; RESPONSE (cell line A-375, skin, NS): REFRACTORY; ACTIVITY_AREA (cell line A-498): 91; AMAX (cell line A-498): -64.89; RESPONSE (cell line A-498): INTERMEDIATE; ACTIVITY_AREA [21]: 91; AMAX [21]: -64.89; RESPONSE [21]: INTERMEDIATE; ACTIVITY_AREA (cell line A-673, bone, NS): 9.6; AMAX (cell line A-673, bone, NS): -13.83; RESPONSE (cell line A-673, bone, NS): REFRACTORY; ACTIVITY_AREA [22]: 13.47; AMAX [22]: -42.78; RESPONSE [22]: INTERMEDIATE; ACTIVITY_AREA [23]: 116.48; AMAX [23]: -48.31; RESPONSE [23]: INTERMEDIATE; ACTIVITY_AREA [24]: 59.56; AMAX [24]: -29.85; RESPONSE [24]: INTERMEDIATE; ACTIVITY_AREA (cell line AGS): 127.27; AMAX (cell line AGS): -69.99; RESPONSE (cell line AGS): INTERMEDIATE; ACTIVITY_AREA (cell line AGS, stomach, adenocarcinoma): 127.27
